Source: patent publication US5654274A, “Biologically active peptides having N-terminal substitutions” (priority 1995, dated 1997)
Not every detail of the peptide structures is certain; ends, links or a residue may be inferred. Numbered stars: 1 amine (or outer) side, 2 acyl side, 3 side chain; on linkers, the order of the positions; unused ones are H or OH. Square brackets hold non-standard residues; d marks the D form. Ends that are not written are not given here. Peptide text beside a SMILES is read from it. * marks the point of attachment. X1 = CCCCCCCCCCCCCC=CC(O)C(CO)N*; Suc = O=C(CCC(=O)[*:2])[*:1]; Octanoyl = CCCCCCCC(=O)*; Orn = NCCC[C@H](N)C(=O)O

How the values were obtained:
Format in all cases: cell-based
[1] = tested on: E. coli ATCC strain 25922; test: Antibacterial MIC microtiter assay (NCCLS M7-T2), E. coli; conditions: E. coli ATCC 25922; Mueller Hinton broth, 16-20 hours at 37° C.
Excerpt: (§1) Table I, which follows, indicates the Minimal Inhibitory Concentration (MIC) in μg/ml of various peptides, against S. aureus strain ATCC 25923(S), P. aeruginosa strain ATCC 27853(P), and E. coli ATCC strain 25922(E), and C. albicans (CA). […] The peptides ere unsubstituted at the N-terminal, substituted with an acetyl group at the N-terminal as indicated by Ac-; substituted with an octanoyl group at the N-terminal as indicated by Oct-, substituted with sphingosine as indicated by Sph-; substituted with a succinyl group, as indicated by Suc-; substituted with a hexanoyl group, as indicated by Hex-; substituted with a heptanoyl group, as indicated by Hep; substituted with a valeryl group, as indicated by Val-; substituted with, a myristryl group, as indicated by Myr-; or substituted with an ibuprofyl group, as indicated by Ibu-.
(§2) The procedure for the antibacterial assay is based upon the guidelines of the National Committee for Clinical Laboratory Standards, Document M7-T2, Volume 8, No. 8, 1988.
(§3) Stock solutions of peptides with and without the appropriate substitutions,are prepared at a concentration of 512 μg/ml in sterile deionized distilled water and stored at -70° C. Each peptide is a C-terminal amide.
(§4) The stock peptide solution is diluted in serial dilutions (1:2) down the wells of a microtiter plate so that the final concentrations of peptides in the wells are 0.25, 0.50, 1, 2, 4, 8, 16, 32, 64, 128, and 256 μg/ml. 1-5×10^5 CFUs/ml of either S. aureus ATCC 25923, E. coli ATCC 25922, P. aeruginosa ATCC 27853, or C. albicans, were added to the wells in full strength Mueller Hinton broth (BBL 11443) from a mid-log culture. The inoculum is standardized spectrophotometrically at 600 nm and is verified by colony counts. The plates are incubated for 16-20 hours at 37° C., and the minimal inhibitory concentration (MIC) for each peptide is determined. Minimal inhibitory concentration is defined as the lowest concentration of peptide which produces a clear well in the microtiter plate. The minimal inhibitory concentration of each of the peptides with and/or without the appropriate substitutions is given in Table I below.

[2] = tested on: S. aureus strain ATCC 25923; test: Antibacterial MIC microtiter assay (NCCLS M7-T2), S. aureus; conditions: S. aureus ATCC 25923; Mueller Hinton broth, 16-20 hours at 37° C.
Excerpt: as §1, §2, §3, §4

[3] = tested on: P. aeruginosa strain ATCC 27853; test: Antibacterial MIC microtiter assay (NCCLS M7-T2), P. aeruginosa; conditions: P. aeruginosa ATCC 27853; Mueller Hinton broth, 16-20 hours at 37° C.
Excerpt: as §1, §2, §3, §4

C. albicans = test: MIC microtiter assay, C. albicans; conditions: Mueller Hinton broth, 16-20 hours at 37° C.
Excerpt: as §1, §2, §3
as §4, with “The minimal inhibitory concentration of each of the peptides with and/or without the appropriate substitutions is given in Table I below.” left out

A. viscosus = test: Anaerobic antimicrobial susceptibility test (NCCLS M11-T2), A. viscosus; conditions: BHI broth, 24-48 hours
S. mutans = test: Anaerobic antimicrobial susceptibility test (NCCLS M11-T2), S. mutans; conditions: BHI broth, 24-48 hours
P. gingivalis = test: Anaerobic antimicrobial susceptibility test (NCCLS M11-T2), P. gingivalis; conditions: 24-48 hours

Compound	Minimal Inhibitory Concentration E [1] [µg/mL]	Minimal Inhibitory Concentration S [2] [µg/mL]	Minimal Inhibitory Concentration P [3] [µg/mL]	Minimal Inhibitory Concentration CA (C. albicans) [µg/mL]	MIC A. viscos (A. viscosus) [μl/ml]	MIC S. mutans (S. mutans) [μl/ml]	MIC P. gingivalis (strain) 9-14K-1 (P. gingivalis; strain 9-14K-1, BHI broth) [μl/ml]	MIC P. gingivalis (strain) 381 (P. gingivalis; strain 381, BHI broth) [μl/ml]	MIC P. gingivalis (strain) A7A1-28 (P. gingivalis; strain A7A1-28, BHI broth)	MIC P. gingivalis (strain) FAY-19M-1 (P. gingivalis; strain FAY-19M-1, BHI broth) [μl/ml]	MIC P. gingivalis (strain) W50 (P. gingivalis; strain W50, BHI broth) [μl/ml]
CCCCCCCC(=O)N[C@@H](CCCN)C(=O)N[C@@H](CCCN)C(=O)N[C@@H](CC(C)C)C(=O)N[C@@H](CC(C)C)C(=O)N[C@@H](CCCN)C(=O)N[C@@H](CC(=O)O)C(=O)N[C@@H](CC(C)C)C(=O)N[C@@H](CCCN)C(=O)N[C@@H](CCCN)C(=O)N[C@@H](CC(C)C)C(N)=O [Oct-(SEQ ID NO: 134)-NH2] (Octanoyl-[Orn][Orn]LL[Orn]DL[Orn][Orn]L-NH2)	16	64	8	64							
CCCCCCCC(=O)N[C@@H](CCCN)C(=O)N[C@@H](CCCN)C(=O)N[C@@H](CC(C)C)C(=O)N[C@@H](CC(C)C)C(=O)N[C@@H](CCCN)C(=O)N[C@@H](CCC(=O)O)C(=O)N[C@@H](CC(C)C)C(=O)N[C@@H](CCCN)C(=O)N[C@@H](CCCN)C(=O)N[C@@H](CC(C)C)C(N)=O [Oct-(SEQ ID NO: 132)-NH2] (Octanoyl-[Orn][Orn]LL[Orn]EL[Orn][Orn]L-NH2)	8	32	8	64							
CCCCCCCCCCCCCC=CC(O)C(CO)NC(=O)CCC(=O)N[C@@H](CCCCN)C(=O)N[C@H](C(=O)N[C@@H](C)C(=O)NCC(=O)N[C@@H](CCCCN)C(=O)N[C@H](C(=O)N[C@@H](C)C(=O)N[C@@H](CCCCN)C(=O)N[C@H](C(=O)N[C@@H](C)C(=O)NCC(=O)N[C@@H](CCCCN)C(=O)N[C@H](C(=O)N[C@@H](C)C(=O)N[C@@H](CCCCN)C(=O)N[C@H](C(=O)N[C@@H](C)C(=O)NCC(=O)N[C@@H](CCCCN)C(=O)N[C@H](C(=O)N[C@@H](C)C(N)=O)[C@@H](C)CC)[C@@H](C)CC)[C@@H](C)CC)[C@@H](C)CC)[C@@H](C)CC)[C@@H](C)CC (stereo partly drawn) [Sph-Suc-(SEQ ID NO: 27)-NH2] ({X1-Suc}-KIAGKIAKIAGKIAKIAGKIA-NH2)	32	64	> 256								
CCCCCCCC(=O)N[C@@H](CC(C)C)C(=O)N[C@@H](CCCN)C(=O)N[C@@H](CC(C)C)C(=O)N[C@@H](CC(C)C)C(=O)N[C@@H](CCCN)C(=O)N[C@@H](CCCN)C(=O)N[C@@H](CC(C)C)C(=O)N[C@@H](CCCN)C(=O)N[C@@H](CCCN)C(=O)N[C@@H](CC(C)C)C(N)=O [Oct-(SEQ ID NO: 140)-NH2] (Octanoyl-L[Orn]LL[Orn][Orn]L[Orn][Orn]L-NH2)	16	32	8	64							
KVALKALKKVALKALKVALKAL-NH2 [(SEQ ID NO: 152)-NH2]					16	16	4	32	4,8 μl/ml	8	4
